Measured data: PubChem BioAssay AID652243 (Drosophila RNAi Screening Center, 2013)

Test: 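Knock-downs that decrease or increase androgen receptor reporter signal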 (primary screen)
System: Drosophila S2R+ cells
Reagents: long dsRNA against Drosophila genes
Timing: 72 h (48 h, then 24 h hormone)
Treatment: synthetic androgen R1881 at 10 nM for 24 h
Read-out: 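Per-well raw luminescence of the androgen-driven firefly reporter and of the Renilla control, two replicates each, without normalisation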
Reading the numbers: firefly reporter light: higher = more light from androgen-responsive reporter; Renilla control light: higher = more constitutive control signal (cell number, transfection)
Rule for the call: 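Across duplicate plates, a knock-down whose log firefly/Renilla ratio shifted a set fold down or up from the GFP/LacZ control mean was a hit; the downward cut appears as both 1.5 and 3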
Meaning of the calls: active = hit: reporter lowered or raised; inactive = no hit
The screen tested about 24,000 reagents; below is an unselected part of those with a known target gene and a result. Of all reagents, 246 (1%) were called active. 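Plates not normalised; calls are printed but the firefly/Renilla ratio behind them is not deposited; fold cut for lowering reported inconsistently.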 The raw values are shown without normalisation. A plus sign joins genes that one reagent is predicted to hit. The record does not give: the amount of reagent.

eEF5 (eukaryotic translation elongation factor 5) [DRSC04681] gave firefly reporter light, replicate 1 = 2.58e5; firefly reporter light, replicate 2 = 2.95e5; Renilla control light, replicate 1 = 2.13e6; Renilla control light, replicate 2 = 1.64e6; inactive.
With knock-down of Cyp6t2Psi (pseudo) [DRSC01840], the record shows firefly reporter light, replicate 1 = 2.12e5; firefly reporter light, replicate 2 = 2.38e5; Renilla control light, replicate 1 = 5.66e5; Renilla control light, replicate 2 = 5.98e5; inactive.
For Cyp6t2Psi (pseudo) [DRSC29500], the values are firefly reporter light, replicate 1 = 3.03e5; firefly reporter light, replicate 2 = 5.11e5; Renilla control light, replicate 1 = 5.03e5; Renilla control light, replicate 2 = 5.03e5; inactive.
For CG32625 [DRSC18994], the values are firefly reporter light, replicate 1 = 4.79e5; firefly reporter light, replicate 2 = 3.23e5; Renilla control light, replicate 1 = 4.63e5; Renilla control light, replicate 2 = 3.26e5; inactive.
Knock-down of CG32625 [DRSC28080] resulted in: firefly reporter light, replicate 1 = 3.90e5; firefly reporter light, replicate 2 = 3.49e5; Renilla control light, replicate 1 = 1.24e6; Renilla control light, replicate 2 = 1.39e6; inactive.
After knock-down of lsn (larsen) [DRSC16081], the record shows firefly reporter light, replicate 1 = 1.42e5; firefly reporter light, replicate 2 = 1.92e5; Renilla control light, replicate 1 = 2.62e6; Renilla control light, replicate 2 = 3.63e6; inactive.
With knock-down of lsn (larsen) [DRSC25700] the results were firefly reporter light, replicate 1 = 7.37e5; firefly reporter light, replicate 2 = 6.73e5; Renilla control light, replicate 1 = 1.00e6; Renilla control light, replicate 2 = 1.06e6; inactive.
For CG32437 [DRSC11760] the deposit lists firefly reporter light, replicate 1 = 2.82e5; firefly reporter light, replicate 2 = 2.69e5; Renilla control light, replicate 1 = 3.24e6; Renilla control light, replicate 2 = 2.56e6; inactive.
After knock-down of CG32437 [DRSC22020], the record shows firefly reporter light, replicate 1 = 5.55e5; firefly reporter light, replicate 2 = 5.28e5; Renilla control light, replicate 1 = 1.90e6; Renilla control light, replicate 2 = 1.84e6; inactive.
Against CG32437 [DRSC27187], the entry reads firefly reporter light, replicate 1 = 3.55e5; firefly reporter light, replicate 2 = 3.50e5; Renilla control light, replicate 1 = 7.57e5; Renilla control light, replicate 2 = 6.30e5; inactive.
Silencing of CG2889 [DRSC18236] gave: firefly reporter light, replicate 1 = 6.01e5; firefly reporter light, replicate 2 = 6.76e5; Renilla control light, replicate 1 = 3.23e6; Renilla control light, replicate 2 = 3.14e6; inactive.
After knock-down of lncRNA:sphinx + ATPsynF [DRSC17191] the results were firefly reporter light, replicate 1 = 8.56e5; firefly reporter light, replicate 2 = 7.46e5; Renilla control light, replicate 1 = 1.33e6; Renilla control light, replicate 2 = 8.09e5; inactive.
With knock-down of Arl6 (ADP ribosylation factor-like 6) [DRSC07031], the record shows firefly reporter light, replicate 1 = 1.62e5; firefly reporter light, replicate 2 = 1.44e5; Renilla control light, replicate 1 = 1.83e6; Renilla control light, replicate 2 = 1.94e6; inactive.
With knock-down of CG30008 [DRSC21576], the record shows firefly reporter light, replicate 1 = 8.15e5; firefly reporter light, replicate 2 = 9.50e5; Renilla control light, replicate 1 = 2.30e6; Renilla control light, replicate 2 = 2.03e6; inactive.
Silencing of CG30008 [DRSC27726] gave: firefly reporter light, replicate 1 = 4.71e5; firefly reporter light, replicate 2 = 4.69e5; Renilla control light, replicate 1 = 5.65e5; Renilla control light, replicate 2 = 6.71e5; inactive.

In a second layout: results already given
CG32625 [DRSC18994]
- firefly reporter light, replicate 1: 4.79e5
- firefly reporter light, replicate 2: 3.23e5
- Renilla control light, replicate 1: 4.63e5
- Renilla control light, replicate 2: 3.26e5
- call: inactive

CG32625 [DRSC28080]
- firefly reporter light, replicate 1: 3.90e5
- firefly reporter light, replicate 2: 3.49e5
- Renilla control light, replicate 1: 1.24e6
- Renilla control light, replicate 2: 1.39e6
- call: inactive
